Values from PubChem BioAssay AID504793 (Drosophila RNAi Screening Center, 2011)
The screen tested about 23,000 reagents; below is a random part of those with a known target gene and a result. Over the whole deposit, 62 (0.27%) were called active. 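Calls come from follow-up tests whose scores are not deposited, so confirmed genes may have low counts here; counts are not normalised per plate.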 The raw values are shown without normalisation. Entries without a mark were called inactive. Reagent sequences are not shown.

- Assay: 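Genes required for cells to halt at G2/M after double-strand DNA breaks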 (primary screen)
- Cells: Drosophila S2R+ cells
- Reagents: long dsRNA against Drosophila genes, about 0.25 µg dsRNA per well
- Time to read-out: 4 days of dsRNA, then 4 hours of drug before read-out
- Challenge: doxorubicin 0.5 µM for 4 hours to cause double-strand breaks, in cells also given a low, harmless dose of dsRNA against nbs to sensitise the assay
- Measurement: 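Mitotic index as the number of phospho-histone H3-positive cells in each well following doxorubicin, given as raw counts without normalisation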
- Scale: mitotic cells: higher = more cells in mitosis, weaker G2 arrest
- Active means: 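Genes are called active only when high mitotic counts were reproduced with independent dsRNAs and mitosis was checked for delay without damage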
- Calls: active = confirmed in follow-up tests; inactive = not confirmed

ase (asense) [DRSC18739]
- mitotic cells, replicate 1: 4

Mtr4 (Mtr4 helicase) [DRSC03560]
- mitotic cells, replicate 1: 13

CG7706 [DRSC16295]
- mitotic cells, replicate 1: 12

CG7706 [DRSC26375]
- mitotic cells, replicate 1: 6

Idgf4 (Imaginal disc growth factor 4) [DRSC18675]
- mitotic cells, replicate 1: 8

Idgf4 (Imaginal disc growth factor 4) [DRSC24939]
- mitotic cells, replicate 1: 2

RpS19a (Ribosomal protein S19a) [DRSC20281]
- mitotic cells, replicate 1: 10

CG10646 [DRSC09764]
- mitotic cells, replicate 1: 9

CG10139 [DRSC05972]
- mitotic cells, replicate 1: 2

Nt5c (5' nucleotidase C) [DRSC06711]
- mitotic cells, replicate 1: 13

Nt5c (5' nucleotidase C) [DRSC27240]
- mitotic cells, replicate 1: 2

BBS9 (Bardet-Biedl syndrome 9) [DRSC04257]
- mitotic cells, replicate 1: 2

BBS9 (Bardet-Biedl syndrome 9) [DRSC27789]
- mitotic cells, replicate 1: 4

Pvf2 (PDGF- and VEGF-related factor 2) [DRSC00968]
- mitotic cells, replicate 1: 14

Pvf2 (PDGF- and VEGF-related factor 2) [DRSC02283]
- mitotic cells, replicate 1: 4

CG42238 [DRSC03180]
- mitotic cells, replicate 1: 11

Mer (Merlin) [DRSC20259]
- mitotic cells, replicate 1: 3

CG18132 [DRSC00518]
- mitotic cells, replicate 1: 4

Zfrp8 (Zinc finger protein RP-8) [DRSC04352]
- mitotic cells, replicate 1: 3

PpD5 (Protein phosphatase D5) [DRSC04641]
- mitotic cells, replicate 1: 4

PpD5 (Protein phosphatase D5) [DRSC23312]
- mitotic cells, replicate 1: 9

Cyp4p3 (Cytochrome P450 4p3) [DRSC07374]
- mitotic cells, replicate 1: 9

Cyp4p3 (Cytochrome P450 4p3) [DRSC26733]
- mitotic cells, replicate 1: 10

3 entries already listed, arranged by “mitotic cells, replicate 1”, lowest first:
Idgf4 (Imaginal disc growth factor 4) [DRSC24939]
- mitotic cells, replicate 1: 2

CG10646 [DRSC09764]
- mitotic cells, replicate 1: 9

RpS19a (Ribosomal protein S19a) [DRSC20281]
- mitotic cells, replicate 1: 10
